Results from PMC5666619.
These are yes or no findings as the source states them, for the method shown. In cells and extracts the contact can be indirect. Some results given as binding are weak or reduced against the parent protein; the word gives no strength. Sequences can lack the tags named with a protein.

By UniProt entry, the sequences of proteins in these tests, tags left out.
UniProt A8DY81: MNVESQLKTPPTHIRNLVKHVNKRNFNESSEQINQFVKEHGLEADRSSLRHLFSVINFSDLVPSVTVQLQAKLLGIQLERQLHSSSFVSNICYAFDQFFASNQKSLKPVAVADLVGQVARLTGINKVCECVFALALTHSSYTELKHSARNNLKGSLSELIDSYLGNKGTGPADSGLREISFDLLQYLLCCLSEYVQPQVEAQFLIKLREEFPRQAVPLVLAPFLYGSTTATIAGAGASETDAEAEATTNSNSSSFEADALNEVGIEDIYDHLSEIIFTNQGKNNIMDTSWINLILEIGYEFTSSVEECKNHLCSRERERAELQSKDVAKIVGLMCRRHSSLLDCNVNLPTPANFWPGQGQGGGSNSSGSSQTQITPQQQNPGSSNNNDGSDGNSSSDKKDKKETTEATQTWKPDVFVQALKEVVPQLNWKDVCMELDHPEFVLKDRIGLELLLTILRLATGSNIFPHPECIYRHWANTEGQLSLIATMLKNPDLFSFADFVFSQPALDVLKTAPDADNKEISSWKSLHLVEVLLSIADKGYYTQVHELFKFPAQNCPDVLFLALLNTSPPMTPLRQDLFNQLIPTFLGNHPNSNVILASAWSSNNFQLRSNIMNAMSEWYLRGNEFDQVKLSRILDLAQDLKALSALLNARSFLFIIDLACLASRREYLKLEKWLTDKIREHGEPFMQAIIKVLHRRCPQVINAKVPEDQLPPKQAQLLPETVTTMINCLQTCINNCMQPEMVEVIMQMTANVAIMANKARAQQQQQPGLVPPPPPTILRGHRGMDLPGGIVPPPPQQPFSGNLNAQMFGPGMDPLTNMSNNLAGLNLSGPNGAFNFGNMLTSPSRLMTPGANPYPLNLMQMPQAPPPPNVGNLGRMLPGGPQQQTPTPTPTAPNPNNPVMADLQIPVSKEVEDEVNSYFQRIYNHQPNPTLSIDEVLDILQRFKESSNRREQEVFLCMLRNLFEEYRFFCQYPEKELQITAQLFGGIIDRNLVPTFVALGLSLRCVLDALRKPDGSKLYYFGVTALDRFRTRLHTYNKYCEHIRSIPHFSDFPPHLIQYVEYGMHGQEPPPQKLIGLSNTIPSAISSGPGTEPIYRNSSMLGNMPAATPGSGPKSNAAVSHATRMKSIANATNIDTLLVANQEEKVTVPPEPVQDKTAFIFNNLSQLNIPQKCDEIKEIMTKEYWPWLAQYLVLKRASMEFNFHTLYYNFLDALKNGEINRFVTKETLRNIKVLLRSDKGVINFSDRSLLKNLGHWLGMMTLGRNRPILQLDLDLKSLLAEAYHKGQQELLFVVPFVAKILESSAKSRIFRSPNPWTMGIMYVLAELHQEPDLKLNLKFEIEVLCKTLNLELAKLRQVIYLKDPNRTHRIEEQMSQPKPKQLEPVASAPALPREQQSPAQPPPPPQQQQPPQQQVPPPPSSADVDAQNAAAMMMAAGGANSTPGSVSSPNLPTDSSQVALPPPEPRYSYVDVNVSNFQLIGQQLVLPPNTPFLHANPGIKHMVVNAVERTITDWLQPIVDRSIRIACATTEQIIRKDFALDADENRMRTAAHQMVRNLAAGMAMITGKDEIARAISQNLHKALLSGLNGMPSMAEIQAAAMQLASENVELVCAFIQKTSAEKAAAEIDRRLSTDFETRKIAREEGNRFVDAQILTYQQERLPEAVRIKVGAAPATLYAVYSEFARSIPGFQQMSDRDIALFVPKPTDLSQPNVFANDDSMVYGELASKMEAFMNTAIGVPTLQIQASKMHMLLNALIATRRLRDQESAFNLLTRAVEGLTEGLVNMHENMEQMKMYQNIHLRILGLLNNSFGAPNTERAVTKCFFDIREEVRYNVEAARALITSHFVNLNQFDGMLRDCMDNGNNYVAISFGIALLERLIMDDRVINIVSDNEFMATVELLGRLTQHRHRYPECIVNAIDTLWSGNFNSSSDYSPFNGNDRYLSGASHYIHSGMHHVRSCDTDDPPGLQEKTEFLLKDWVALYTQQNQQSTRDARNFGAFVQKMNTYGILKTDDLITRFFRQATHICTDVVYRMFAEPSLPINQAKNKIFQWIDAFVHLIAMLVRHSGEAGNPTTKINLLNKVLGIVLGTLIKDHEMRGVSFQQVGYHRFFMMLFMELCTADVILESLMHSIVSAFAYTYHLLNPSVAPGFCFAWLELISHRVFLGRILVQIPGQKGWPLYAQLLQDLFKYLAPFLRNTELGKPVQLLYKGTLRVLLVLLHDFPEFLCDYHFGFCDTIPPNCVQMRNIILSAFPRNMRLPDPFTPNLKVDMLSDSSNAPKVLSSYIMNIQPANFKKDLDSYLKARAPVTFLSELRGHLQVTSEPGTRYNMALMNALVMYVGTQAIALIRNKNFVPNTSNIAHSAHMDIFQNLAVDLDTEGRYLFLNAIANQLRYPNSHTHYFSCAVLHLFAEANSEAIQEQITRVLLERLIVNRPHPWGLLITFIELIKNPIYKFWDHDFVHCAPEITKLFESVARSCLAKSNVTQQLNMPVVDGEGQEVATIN

Biological target: T1, GFP-Aub (Aubergine) (Drosophila) (UniProt O76922)
T1 sequence: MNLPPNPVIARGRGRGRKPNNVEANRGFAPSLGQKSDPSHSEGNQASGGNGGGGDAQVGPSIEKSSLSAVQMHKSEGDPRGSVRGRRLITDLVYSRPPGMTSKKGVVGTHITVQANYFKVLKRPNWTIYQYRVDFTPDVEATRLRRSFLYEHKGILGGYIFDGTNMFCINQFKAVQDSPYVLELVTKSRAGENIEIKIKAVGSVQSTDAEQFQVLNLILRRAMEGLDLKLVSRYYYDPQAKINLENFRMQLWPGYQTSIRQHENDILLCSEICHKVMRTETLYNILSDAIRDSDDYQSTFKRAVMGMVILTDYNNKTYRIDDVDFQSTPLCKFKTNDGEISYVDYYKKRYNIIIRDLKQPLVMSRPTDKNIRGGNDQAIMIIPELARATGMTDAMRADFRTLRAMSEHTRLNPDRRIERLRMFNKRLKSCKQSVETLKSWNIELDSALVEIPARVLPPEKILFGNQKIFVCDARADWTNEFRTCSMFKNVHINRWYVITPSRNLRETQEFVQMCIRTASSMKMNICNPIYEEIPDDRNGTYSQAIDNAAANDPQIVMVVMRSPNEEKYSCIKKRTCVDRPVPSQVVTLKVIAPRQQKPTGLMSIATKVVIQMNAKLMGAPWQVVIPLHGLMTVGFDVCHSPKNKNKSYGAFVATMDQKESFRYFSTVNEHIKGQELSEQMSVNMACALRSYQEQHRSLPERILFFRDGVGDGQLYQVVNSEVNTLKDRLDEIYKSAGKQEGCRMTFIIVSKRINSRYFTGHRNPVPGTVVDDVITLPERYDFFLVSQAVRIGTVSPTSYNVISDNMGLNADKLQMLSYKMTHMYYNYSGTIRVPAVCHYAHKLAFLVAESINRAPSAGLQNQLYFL
Assay: co-IP; ovarian extracts (60 ovaries, 3-day-old females) in DXB-150 (25 mM Hepes-KOH pH 6.8, 250 mM sucrose, 1 mM MgCl2, 1 mM DTT, 150 mM NaCl, 0.1% Triton X-100) with RNase inhibitor or RNase A; IP with mouse anti-GFP (3E6) on Dynabeads Protein G, 3 h at 4°C; Western blot; wild-type extract as mock IP

NOT1 (from UniProt A8DY81 1-2505)
binding: binds
